PubChem BioAssay AID504774, Drosophila RNAi Screening Center, 2011
Purpose: 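Knock-downs that shift viability of MMS-exposed cells relative to untreated ones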 (primary screen). Cells: Drosophila Kc167 cells. Reagents: long dsRNA against Drosophila genes, about 0.25 µg dsRNA per well. Time to read-out: about 6 days: 3 days knock-down, then 3 days with or without MMS. Challenge: methyl methanesulphonate 0.004% (w/v) for 3 days after knock-down. Measurement: 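ATP-dependent luminescence as a measure of live cells in MMS-exposed wells, quantile normalised within each plate, with replicate values also given as a mean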. Reading the numbers: mean viability with MMS: higher = more surviving cells after MMS.
The deposit covers about 23,000 reagents; below is an unselected part of those with a known target gene and a result. 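Values are quantile-normalised luminescence on an arbitrary scale; higher means more cells surviving MMS.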 Not all columns of the deposit are shown.

mean viability with MMS, by gene and reagent
CG42521: DRSC10154 3.46e6
ND5 (retired record): DRSC21281 3.37e6
HP1c: DRSC16166 3.67e6
CG43672: DRSC19452 3.67e6; DRSC20108 3.42e6
Fur1: DRSC13707 3.36e6; DRSC16676 3.46e6
su(r): DRSC18705 3.52e6
CG9411: DRSC20184 3.63e6
CG6023: DRSC19970 3.63e6
aub: DRSC03486 3.61e6
Remo: DRSC19710 3.65e6
X11L: DRSC19958 3.84e6; DRSC19959 3.60e6
CG9737: DRSC16550 3.63e6
Nprl2: DRSC20153 3.73e6
Fbxo42: DRSC04529 3.56e6
Osbp: DRSC16779 3.51e6
CG9380: DRSC04549 3.50e6
Samtor: DRSC04390 3.75e6
chico: DRSC03531 3.59e6
CG7542: DRSC10868 3.60e6
CG16879 (retired record): DRSC01918 3.62e6; DRSC22849 3.43e6
CG4630: DRSC06874 3.62e6
ohgt: DRSC15521 3.36e6
Hsp60B: DRSC00542 3.54e6
mRpL2: DRSC10896 3.55e6

Laid out differently: 2 of the entries above
gene | DRSC id | mean viability with MMS
X11L | DRSC19959 | 3.60e6
CG9737 | DRSC16550 | 3.63e6
